Data: patent publication US11866518B2 (BicycleTx Limited, priority 2020, dated 2024)

Experiment: general procedure: Fmoc solid-phase peptide synthesis; Rink Amide ChemMatrix resin (100-200 mesh), Biotage, loading around 0.5 mmol/g, unless otherwise stated
Settings: cyclisation step; for final LC-MS purity: LCMS and HRMS

| Substance | cyclisation yield [%] | final LC-MS purity |
| --- | --- | --- |
| Ac-Cys-(NMe-Ala)-(NMe-Trp)-(tBu-Ala)-Gln-Asp-Cys-(NMe-Trp)-(dimethyl-Arg)-Gly-(4-F-Phe)-Cys-NH2 | 19 | purity 93% |
| C-(NMe-Ala)-(1-naphthyl-Ala)-(tBu-Ala)-Q-D-C-(NMe-Trp)-(dimethyl-Arg)-G-(4-F-Phe)-C-a-NH2 | 17 | purity 90% |
